Experimental data: PubChem BioAssay AID1259260 (Sanger Institute, 2017)
The deposit covers 794 reagents; this is an unselected part. In the full data, 13 (1.6%) are marked active. 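Calls reflect only knock-down without drug; synergy above 0.15 was grouped apart and does not change the call.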 Not all columns of the deposit are shown. No sequences are given here. The record does not give: the amount of reagent, the time to read-out.

Screen: 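Kinases whose knock-down kills colorectal cancer cells or boosts drug effects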 (primary screen)
Cell system: human NCI-H716 colorectal cancer cells
Knock-down reagent: siRNA pool against human genes
Treatment: anchor drugs BYL719 (alpelisib) 1 µM, cetuximab 5 µg/ml or trametinib 10 nM, each at a dose chosen to harm viability only mildly; DMSO vehicle for the knock-down-alone arm
Read-out: 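Mean viability over replicates against non-targeting siRNA, robust z-score without drug, and per-drug synergy comparing combined with single treatments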
Reading the numbers: viability robust z-score, siRNA alone: higher = more surviving cells; below -3 called essential
Call rule: 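a knock-down counts as essential if its no-drug robust z-score is lower than -3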
Calls: active = essential (knock-down alone lowers viability); inactive = no essential effect

What did the screen give for OBSCN?
viability robust z-score, siRNA alone: -0.112; activity call: inactive

How did the screen score BTK?
viability robust z-score, siRNA alone: 0.413; activity call: inactive

For CRIM1, what was measured?
viability robust z-score, siRNA alone: -2.2; activity call: inactive

With AMER1, what was measured?
viability robust z-score, siRNA alone: -2.96; activity call: inactive

With CDKL2, what was measured?
viability robust z-score, siRNA alone: -1.22; activity call: inactive

For PRKAR1A, what was measured?
viability robust z-score, siRNA alone: 0.602; activity call: inactive

With STRADA, how do the results read?
viability robust z-score, siRNA alone: 0.602; activity call: inactive

For CAD, what was measured?
viability robust z-score, siRNA alone: -0.783; activity call: inactive

How did the screen score BRD2?
viability robust z-score, siRNA alone: -0.0781; activity call: inactive

With IP6K2, how do the results read?
viability robust z-score, siRNA alone: 0.602; activity call: inactive

For WNK4, how do the results read?
viability robust z-score, siRNA alone: 0.602; activity call: inactive

How did the screen score FASTK?
viability robust z-score, siRNA alone: 0.602; activity call: inactive

For GALK1, what was measured?
viability robust z-score, siRNA alone: 0.129; activity call: inactive

For GUCY2C, what was measured?
viability robust z-score, siRNA alone: 0.602; activity call: inactive

Which result is listed for PKN1?
viability robust z-score, siRNA alone: 0.602; activity call: inactive

How did the screen score PRKCQ?
viability robust z-score, siRNA alone: 0.602; activity call: inactive

For MAST2, how do the results read?
viability robust z-score, siRNA alone: -0.077; activity call: inactive

For STAG2, what does the deposit list?
viability robust z-score, siRNA alone: 0.602; activity call: inactive

Part of the list above, set out differently:
gene | viability robust z-score, siRNA alone | activity call
OBSCN | -0.112 | inactive
BTK | 0.413 | inactive

Additional entries follow.
For TSSK6, how do the results read?
viability robust z-score, siRNA alone: -1.13; activity call: inactive

Which result is listed for CHKA?
viability robust z-score, siRNA alone: 0.602; activity call: inactive

How did the screen score NEK9?
viability robust z-score, siRNA alone: -0.224; activity call: inactive

Which result is listed for AGK?
viability robust z-score, siRNA alone: 0.602; activity call: inactive

What is on record for ROS1?
viability robust z-score, siRNA alone: -0.402; activity call: inactive

Which result is listed for ETNK1?
viability robust z-score, siRNA alone: -0.438; activity call: inactive

With ARAF, what does the deposit list?
viability robust z-score, siRNA alone: -1.56; activity call: inactive

For SRMS, what does the deposit list?
viability robust z-score, siRNA alone: -0.48; activity call: inactive

Which result is listed for PTPRU?
viability robust z-score, siRNA alone: -2.43; activity call: inactive

For DLG2, what was measured?
viability robust z-score, siRNA alone: 0.602; activity call: inactive
